Experimental data from the supplement of paper PMC12823440, “Inhibitors supercharge kinase turnover through native proteolytic circuits” (Nature, 2025).
The list shows a part of the results. Hit calls seldom repeat between salt and free forms of one compound.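 In K562 cells expressing nanoluciferase-fused kinases, luminescence was recorded at 4 h intervals between 2 and 18 h, normalized as percent of control with DMSO at 100% and a positive control at 0%. A significant (2 sigma) signal drop marks a time point as decreased. The authors' rule for a hit is not shown and takes in more than the number of time points.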

target: EGFR_L861Q (UniProt P00533); experiment: kinase-Nluc reporter destabilization hit call (1 = scored as downregulated) (binary); higher = compound decreases kinase abundance; settings: K562; 2-18 h

kinase-Nluc reporter destabilization hit call, inactive:
CC(C)(C)n1nc(Cc2cccc3ccccc23)c2c(N)ncnc21 (10 µM) 0, CC1(C)CC=C(c2nc(C3CC(C)(C)OC(C)(C)C3)ccc2NC(=O)c2nc(C#N)c[nH]2)CC1 [Edicotinib] (2.5 µM) 0, Cc1nc(-c2cnc(NC(C)C)n(C)c2=O)ccc1Oc1ccnc(-c2cnn(C)c2)c1 (2.5 µM) 0, CN(C)C(=O)/C(C#N)=C/c1ccc(-c2nc3cnc4[nH]ccc4c3n2C2CCCCC2)o1 (10 µM) 0, CCCS(=O)(=O)Nc1ccc(F)c(C(=O)c2c[nH]c3ncc(Cl)cc23)c1F (10 µM) 0, CNC(=O)c1cccc(-c2ccc3c(N4CCOC[C@@H]4C)nc(N4CCOC[C@@H]4C)nc3n2)c1 [Vistusertib] (2.5 µM) 0, COCCNCCc1cccc(Nc2ncc3c(n2)-c2ccccc2[C@H](c2ccccc2F)C3)c1 [Derazantinib] (2.5 µM) 0, COc1ccc(COc2ccc(Cc3cnc(N)nc3N)cc2OC)cc1 (10 µM) 0, CC(=O)N1CCN(c2ccc(OCC3COC(Cn4ccnc4)(c4ccc(Cl)cc4Cl)O3)cc2)CC1 (stereo not drawn) [Ketoconazole] (2.5 µM) 0, Cc1ccc(F)c(NC(=O)Nc2ccc(-c3cccc4[nH]nc(N)c34)cc2)c1 [Linifanib] (2.5 µM) 0, NC(=O)c1ccc2nc(-c3ccc(Oc4ccc(Cl)cc4)cc3)[nH]c2c1 (10 µM) 0, CC(C)(C)c1cc(NC(=O)Nc2ccc(-c3cn4c(n3)sc3cc(OCCN5CCOCC5)ccc34)cc2)no1 [Quizartinib] (10 µM) 0, COc1cc2ncn(-c3cc(OCc4ccccc4C(F)(F)F)c(C(N)=O)s3)c2cc1OC (10 µM) 0, CCn1cc(-c2ccnc3[nH]c(-c4cccc(CN(C)C)c4)cc23)c(-c2ccc(NC(=O)N(C)C)cc2)n1 (2.5 µM) 0, C[C@H](CN(C)C)Oc1nc(Nc2cc3cccc(Cl)c3cn2)cnc1C#N (10 µM) 0, Cc1cccc(Cn2nc(C3CC3)c3c(NC(=O)c4cnc5cc(OCCN6CCN(C)CC6)ccn45)cccc32)n1 (10 µM) 0, COc1ccc2c(C(=O)Nc3ccc(NC(=O)c4nn(C5CCN(C(=O)CC(C)(C)C#N)CC5)c5ccc(F)cc45)cc3Cl)cnn2c1 [Src Inhibitor 3] (2.5 µM) 0, CN1CCN(c2ccc(C(=O)Nc3n[nH]c4ccc(Cc5cc(F)cc(F)c5)cc34)c(NC3CCOCC3)c2)CC1 [Entrectinib] (2.5 µM) 0, CCN1CCN(Cc2ccc(C(=O)Nc3ccc(C)c(Oc4ccc5c(c4)CC(=O)N5)c3)cc2C(F)(F)F)CC1 (2.5 µM) 0

target: EGFR_T790M (UniProt P00533); experiment: as above; settings: K562; 2-18 h

kinase-Nluc reporter destabilization hit call, inactive:
CC(C)(C)n1nc(Cc2cccc3ccccc23)c2c(N)ncnc21 (10 µM) 0, CC1(C)CC=C(c2nc(C3CC(C)(C)OC(C)(C)C3)ccc2NC(=O)c2nc(C#N)c[nH]2)CC1 [Edicotinib] (2.5 µM) 0, Cc1nc(-c2cnc(NC(C)C)n(C)c2=O)ccc1Oc1ccnc(-c2cnn(C)c2)c1 (2.5 µM) 0, CN(C)C(=O)/C(C#N)=C/c1ccc(-c2nc3cnc4[nH]ccc4c3n2C2CCCCC2)o1 (10 µM) 0, CCCS(=O)(=O)Nc1ccc(F)c(C(=O)c2c[nH]c3ncc(Cl)cc23)c1F (10 µM) 0, CNC(=O)c1cccc(-c2ccc3c(N4CCOC[C@@H]4C)nc(N4CCOC[C@@H]4C)nc3n2)c1 [Vistusertib] (2.5 µM) 0, COCCNCCc1cccc(Nc2ncc3c(n2)-c2ccccc2[C@H](c2ccccc2F)C3)c1 [Derazantinib] (2.5 µM) 0, COc1ccc(COc2ccc(Cc3cnc(N)nc3N)cc2OC)cc1 (10 µM) 0, CC(=O)N1CCN(c2ccc(OCC3COC(Cn4ccnc4)(c4ccc(Cl)cc4Cl)O3)cc2)CC1 (stereo not drawn) [Ketoconazole] (2.5 µM) 0, Cc1ccc(F)c(NC(=O)Nc2ccc(-c3cccc4[nH]nc(N)c34)cc2)c1 [Linifanib] (2.5 µM) 0, NC(=O)c1ccc2nc(-c3ccc(Oc4ccc(Cl)cc4)cc3)[nH]c2c1 (10 µM) 0, CC(C)(C)c1cc(NC(=O)Nc2ccc(-c3cn4c(n3)sc3cc(OCCN5CCOCC5)ccc34)cc2)no1 [Quizartinib] (10 µM) 0, COc1cc2ncn(-c3cc(OCc4ccccc4C(F)(F)F)c(C(N)=O)s3)c2cc1OC (10 µM) 0, CCn1cc(-c2ccnc3[nH]c(-c4cccc(CN(C)C)c4)cc23)c(-c2ccc(NC(=O)N(C)C)cc2)n1 (2.5 µM) 0, C[C@H](CN(C)C)Oc1nc(Nc2cc3cccc(Cl)c3cn2)cnc1C#N (10 µM) 0, Cc1cccc(Cn2nc(C3CC3)c3c(NC(=O)c4cnc5cc(OCCN6CCN(C)CC6)ccn45)cccc32)n1 (10 µM) 0, COc1ccc2c(C(=O)Nc3ccc(NC(=O)c4nn(C5CCN(C(=O)CC(C)(C)C#N)CC5)c5ccc(F)cc45)cc3Cl)cnn2c1 [Src Inhibitor 3] (2.5 µM) 0, CN1CCN(c2ccc(C(=O)Nc3n[nH]c4ccc(Cc5cc(F)cc(F)c5)cc34)c(NC3CCOCC3)c2)CC1 [Entrectinib] (2.5 µM) 0, CCN1CCN(Cc2ccc(C(=O)Nc3ccc(C)c(Oc4ccc5c(c4)CC(=O)N5)c3)cc2C(F)(F)F)CC1 (2.5 µM) 0
